# Source: PubChem BioAssay AID1259415 (National Center for Advancing Translational Sciences (NCATS), 2018)
# “And” between values parts separate entries of the source, which are not always exact repeats. Identical values can stand only once. Out of some 410,000 compounds screened, about 18,000 (4.4%) were called active. Inconclusive results, whose numbers are uncertain, are shown with a selection of clear calls. Cut-off read from the data, not from the text of the source: active = activity change below about -60%; inconclusive = no clear call, values can overlap the other calls; inactive = above about -39%.
# Experiment: qHTS Assay for inhibitors of the human cytomegalovirus (HCMV)
# Settings: HFF cells, HCMV-luciferase reporter, 72 h; at 57.5 µM; active compounds read low
# Summary of the method: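 Two compound doses tested in HFFs infected with HCMV-luciferase, MOI 1 PFU/cell, 72 h at 37C. Lysate luminescence read with OneGlo; data normalized against buffer-only and 10uM Salinomycin inhibitor controls.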
# % is set by controls: 0 for no effect and ±100 for the full control effect.
row,Compound,"activity change, negative = inhibition"
1,Cc1cccc(/C=C2\Sc3ccc(C(=O)N4CCOCC4)cc3N(C)C2=O)c1,inconclusive: -53%
2,CC(Oc1ccc(Cl)cc1Cl)c1nc(-c2ccc(NC(=O)c3ccncc3)cc2)no1 (stereo not given),active: -101%
3,O=C(O)c1ccccc1NC(=O)c1ccccc1Nc1ccccc1,active: -69.8%
4,CCCCN(C(=O)COc1ccc(NC(C)=O)cc1)C1CCS(=O)(=O)C1 (stereo not given),inconclusive: -48.1%
5,Cc1ccc(OCCCC(=O)Nc2ccc(S(=O)(=O)Nc3cc(C)nc(C)n3)cc2)cc1,inconclusive: -49.1%
6,COC(=O)c1ccccc1NC(=O)C(=O)NCC1CCCO1 (stereo not given),inconclusive: -53%
7,O=C(CCNC(=O)c1ccccc1Cl)Nc1nc(-c2ccc3ccccc3c2)cs1,inconclusive: -58.6%
8,O=C1NC(=S)NC1=Cc1ccccc1O,inconclusive: -42.4%
9,CCC1CCCCN1CCCNC(=O)c1ccc2c(c1)N(Cc1c(F)cccc1Cl)C(=O)CS2 (stereo not given),inconclusive: -44.2%
10,COC(=O)C[C@H]1C=C[C@H](NC(=O)C2CCOCC2)[C@@H](CO)O1,inactive: -15.9%
11,CCOC(=O)C1=C(c2ccccc2)NC(=O)NC1c1ccc(O)c(Cl)c1 (stereo not given),active: -102%
12,COc1cccc(NC(=O)Nc2cccnc2)c1,inactive: -26.5%
13,O=C(Nc1ccccc1C(=O)Nc1ccccc1)c1ccccc1F,inconclusive: -44.5%
14,CCCn1c(SCC(=O)Nc2cccc(F)c2)nc(O)cc1=O,inconclusive: 0%
15,CCOc1ccc(CCNC(=O)C2CCCN(S(=O)(=O)c3c(C)n[nH]c3C)C2)cc1OCC (stereo not given),inactive: 44.6%
16,Fc1ccc(NC(=S)Nc2cccc(Cl)c2)cc1,active: -73.1%
17,C=C(C)c1cccc(C(C)(C)NC(=O)Nc2ccc(OC)nc2)c1,inconclusive: -42.9%
18,O=C(COC(=O)c1cc(S(=O)(=O)N2CCCC2)ccc1O)NCCc1ccccc1,inconclusive: -46.1%
19,Cc1ccc(NC(=O)c2ccc(Br)cc2)c(C(=O)c2ccccc2)c1,inconclusive: -55.1%
20,O=C(Cc1cccs1)N(Cc1cccs1)C1(C(=O)NC2CCCC2)CCCCC1,inconclusive: -43.9%
21,Cc1ccc(NC(=O)N(C2CCCCC2)C(C)c2cccnc2)cc1C (stereo not given),active: -68.5%
22,O=C(CN1C(=O)NC2(CCCCC2)C1=O)NCC(=O)Nc1ccc(F)c(F)c1,inactive: 9.54%

row,Compound,"activity change, negative = inhibition"
1,COc1ccc(Br)cc1CSC(=N)N,inconclusive: -53.4%
2,CCOC(=O)CCn1nc(C)c2c(C)n(-c3ccccc3)nc2c1=O,inactive: 27.9%
3,CC(=O)Nc1nonc1-c1nc2ccccc2n1CCC(C)C,inconclusive: -46.2%
4,Cc1cccc(N2CCN(C(=O)Cn3c(=O)c4cccn4c4ccc(F)cc43)CC2)c1C,inconclusive: -40.8%
5,CN(C(=O)c1cccc(NC(=O)Cc2ccc(NC(=O)C3CCCN(C(=O)CCc4ccccc4)C3)cc2)c1)C1CC1 (stereo not given),inactive: 9.87%
6,CCOC(=O)c1sc(NC(=O)c2cc3nc(-c4ccc(Br)cc4)cc(C(F)(F)F)n3n2)c(C(=O)OCC)c1C,inconclusive: -41.8%
7,Cn1c(CC(=O)NCCO)c(Sc2ccccc2)c2ccccc21,inconclusive: -57.6%
8,COC(=O)C1=C(C)NC2=C(C1c1ccc(O)cc1)S(=O)(=O)c1ccccc12 (stereo not given),inactive: 55%
9,COc1ccc(C2NC(=O)NC(C)=C2C(=O)OC2CCCCC2)cc1 (stereo not given),inconclusive: -40.7%
10,COc1ccc(CN(C(=O)Cc2c[nH]c3ccccc23)C(C(=O)NC2CCCCC2)c2ccc(C)o2)cc1 (stereo not given),inconclusive: -48.5%
11,CC(Oc1ccc(Cl)cc1)c1ccnn1S(=O)(=O)c1ccccc1 (stereo not given),inconclusive: -53.7%
12,COc1cc(C(=O)NNC(=O)c2ccoc2C)cc(OC)c1OC,inconclusive: -51.8%
13,CC1CCN(CCOCCOc2ccc(Br)cc2Cl)CC1,inconclusive: -46.7%
14,CCN(CC)C(=O)C(=O)N/N=C/c1ccc(C(=O)OC)cc1,inconclusive: -41.1%
15,Cc1ccc(N2CC(NC(=O)CCc3ccccc3)CC2=O)cc1 (stereo not given),inconclusive: -44.9%
16,Cc1ccc(OCC(=O)Nc2ccc(Cl)cc2C(=O)c2ccccc2)cc1,inconclusive: -44.1% and inconclusive: -41.3%
17,Cc1nc2sc(C(=O)Nc3ccccc3)c(N)c2c(C)c1[N+](=O)[O-],inactive: 79.1%
18,CC1=C(C(=O)NCc2ccc(Cl)cc2)C2(CCCCCC2)OC1=O,inactive: 0%
19,CC(C)c1nnc(NC(=O)c2nc(S(=O)(=O)Cc3ccccc3F)ncc2Cl)s1,active: -111%
20,O=C(c1ccc(Br)o1)N1CCN=C1SCc1cccc(F)c1,inconclusive: -43.2%
21,CCN1CCC(N(Cc2ccc3c(c2)OCO3)C(=O)Nc2ccccc2OC)CC1,inactive: -4.59%
22,COc1cc(NS(=O)(=O)c2ccc3oc(=O)c4ncn(C)c4c3c2)cc(OC)c1,inactive: -36.9%

row,Compound,"activity change, negative = inhibition"
1,NS(=O)(=O)c1ccc(CCNC(=O)Nc2ccc(Cl)cc2)cc1,inconclusive: -50.8%
2,Cc1ccc(C(O)c2ncc(-c3ccccc3F)[nH]2)cc1F (stereo not given),inconclusive: -44.4%
3,CC(C)CC(NC(=O)C1CCC(C)CC1)C(=O)Nc1ccccn1 (stereo not given),inactive: 78.4%
4,O=C(COc1ccccc1Cl)N1CCCC(N2CCN(c3ccc(F)cc3)CC2)C1 (stereo not given),inconclusive: -42.5%
5,COc1cccc(NC(=O)c2cc3c(=O)n(Cc4cccnc4)ccc3nc2C)c1,inactive: -10.6%
6,FC(F)(F)c1cc(CCN2CCNC[C@@H]2CC2CCCCC2)cc(C(F)(F)F)c1,active: -98.5%
7,O=C(Nc1ccc(NC(=O)c2cccs2)cc1)c1ccc2c(c1)OCO2,inconclusive: -42.5%
8,COCCNC(=O)C[C@@H]1C[C@H]2c3cc(NC(=O)Nc4ccc(F)cc4)ccc3O[C@H]2[C@H](CO)O1,inactive: 7.96%
9,Cc1sc(N)nc1C12CC3CC(CC(C3)C1)C2,inconclusive: -53.5%
10,CC(C)[C@H](NC(=O)OC(C)(C)C)c1nnc(S(=O)(=O)Cc2c(F)cccc2Cl)o1,active: -76.2%
11,CC(C)CNC(=O)c1cccc(NC(=O)COc2ccc([N+](=O)[O-])cc2)c1,inconclusive: -46.1%
12,CCCC(C)C(=O)Nc1cc([N+](=O)[O-])ccc1Cl (stereo not given),inconclusive: -46%
13,CCOC(=O)N(C)c1c(CC)nc2c(OCc3ccccc3C)cccn12,inactive: -4.75%
14,O=C(c1ccc(-c2cc3ccccc3oc2=O)cc1)N1CCN(c2ccc(Cl)cc2[N+](=O)[O-])CC1,inconclusive: -48.9%
15,CC(=O)N1c2ccc(S(=O)(=O)N3CCCC(C(=O)N4CCC(C)CC4)C3)cc2CC1C (stereo not given),inconclusive: -57%
16,Cc1ccc2c(CC(=O)OCc3nc(N)nc(Nc4ccccc4C)n3)coc2c1,inactive: -28%
17,CCOC(=O)N1CCN(C(=O)c2ccc3c(c2)NC(=O)/C(=C\c2cccc(C)c2)S3)CC1,inconclusive: -41.3%
18,COc1ccc(C2C=C(c3ccc(C)c(C)c3)Nc3ncnn32)c(OC)c1OC (stereo not given),inconclusive: -50.2%
19,CCN1CCN(c2ccc(S(=O)(=O)N3CCOCC3)cc2NC(=O)c2ccc(OCC(C)C)cc2)CC1,inactive: -20.1%
20,COc1ccc(CCNC(=O)c2nn(C)c3c2CSc2ccccc2-3)cc1OC,inconclusive: -48.5%
21,COc1ccc(CNC(=O)COc2ccc(Br)c(C)c2)cc1,inconclusive: -55%
22,O=S(=O)(N1CCCCC1)N1CCN(c2cc(Cl)ccc2Cl)CC1,inconclusive: -42%

row,Compound,"activity change, negative = inhibition"
1,CCc1ccc(NC(=O)CSc2nc3ccsc3c(=O)n2C(C)CC)cc1 (stereo not given),inconclusive: -57.8%
2,COc1ccc(NC(=O)CN(C)C(C)C(=O)NC(=O)NC2CCCCC2)cc1 (stereo not given),inconclusive: -44.8%
3,CC1CCC(NC(=O)CC(C)(C)Cc2nc3ccccc3c(=O)[nH]2)CC1 (stereo not given),inconclusive: -50.8%
4,CC(=O)Nc1ccc(-c2csc(NC(=O)C3CCN(S(=O)(=O)c4cccs4)CC3)n2)cc1,active: -69.3%
5,CC(NCCS(=O)(=O)c1ccc(Cl)cc1)c1cccc(Cl)c1 (stereo not given),inconclusive: -45.5%
6,CCCNc1nc(OC)nc(N2CC3CC(C2)c2cccc(=O)n2C3)n1 (stereo not given),inconclusive: -43.9%
7,O=C(CN(CCc1ccccc1)C(=O)c1csnn1)NC1CCCC1,inconclusive: -50.1%
8,COc1ccc(NC(=O)COc2ccc3c(c2)CCC3)cc1,inconclusive: -47.8%
9,O=c1c2cc(NC(=S)NCCCN3CCC(Cc4ccccc4)CC3)ccc2nc2n1CCCCC2,active: -96.2%
10,COc1ccc(S(=O)(=O)/N=C2\C=C(Nc3ccc(O)cc3)C(=O)c3ccccc32)cc1,active: -99%
11,CCCCCCCCNc1ncnc2[nH]ncc12,active: -75.9%
12,COc1cc(OC)c(NC(=O)c2noc3c2CSc2ccccc2-3)cc1Cl,inactive: -27.8%
13,O=[N+]([O-])c1cc([N+](=O)[O-])c(Oc2cncc(Cl)c2)cc1NN1CCCCC1,inconclusive: -44.4%
14,COc1cccc(-c2nc(CS(=O)(=O)CC(=O)Nc3c(C)cccc3C)c(C)o2)c1,inconclusive: -47.9%
15,CC(C)[C@@H]1CC[C@@H](C)C[C@H]1OC(=O)C[n+]1cc(-c2ccc(Cl)cc2)n2c1CCCCC2,active: -96.7%
16,O=C(CSc1ccccn1)N1CCN(c2ncc(C(F)(F)F)cc2Cl)CC1,inconclusive: -45.2%
17,CCc1ccccc1NC(=O)[C@@H](c1ccccc1)N1Cc2ccccc2C1=O,inactive: -17.1%
18,Cc1ccc(NC(=O)CCCn2c(=O)c3cccn3c3cccnc32)cc1C,inconclusive: -52.5%
19,Cc1ncc(CO)c(CO)c1O,inconclusive: -42.6%
